PubChem BioAssay AID330 (DTP/NCI, 2004)
The list is a part of this screen's results and no random one: it gathers some chemical classes. Not every dose and run of a compound is shown. T/C: endpoint of the treated group in % of that of the vehicle group. For survival time, the PubChem record calls one and a half times the control and up active, and a quarter to a half above the control has no call in these data; cut-offs in other NCI protocols can differ. Schedules are NCI's codes, taken here to give the interval after Q, in days (D) or hours (H), and the number of doses after X. Some entries show no survivor count and are marked so; the dose need not have been tolerated. Some doses were run more than once; the values are given in rising order.

System: P388 leukemia ip, CD2F1 mice, survival T/C
Assay: NCI In Vivo Anticancer Drug Screen. Data for tumor model P388 Leukemia (intraperitoneal) in CD2F1 (CDF1) mice
Details: T/C endpoint: median survival time, higher T/C = longer survival
[1] = dose: 6.25 mg/kg/injection, schedule: Q01DX009 (ip), vehicle: saline
[2] = dose: 12.5 mg/kg/injection, schedule: Q01DX009 (ip), vehicle: saline
[3] = dose: 100.0 mg/kg/injection, schedule: Q01DX001 (ip), vehicle: saline
[4] = dose: 200.0 mg/kg/injection, schedule: Q01DX001 (ip), vehicle: saline
[5] = dose: 400.0 mg/kg/injection, schedule: Q01DX001 (ip), vehicle: saline
[6] = dose: 100.0 mg/kg/injection, schedule: Q04DX003 (ip), vehicle: saline
[7] = dose: 25.0 mg/kg/injection, schedule: Q01DX009 (ip), vehicle: saline

With `Cc1cc2nc(CN(CCCl)CCCl)[nH]c2cc1C` the T/C (dose: 0.63 mg/kg/injection, schedule: Q04DX003 (ip), vehicle: saline) was 113 % of control [survivor count not shown], the T/C (dose: 1.25 mg/kg/injection, schedule: Q04DX003 (ip), vehicle: saline) was 113 % of control [survivor count not shown] and the T/C (dose: 2.5 mg/kg/injection, schedule: Q04DX003 (ip), vehicle: saline) was 127 % of control [survivor count not shown]. For the same compound, the T/C (dose: 3.13 mg/kg/injection, schedule: Q01DX009 (ip), vehicle: saline) was 181 % of control [survivor count not shown], the T/C (dose: 5.0 mg/kg/injection, schedule: Q04DX003 (ip), vehicle: saline with Tween-80) was 142 % of control [survivor count not shown] and the T/C [1] was 204 % of control [survivor count not shown]. For the same compound, the T/C (dose: 10.0 mg/kg/injection, schedule: Q04DX003 (ip), vehicle: saline with Tween-80) was 166 % of control [survivor count not shown], the T/C [2] was 100 % of control [survivor count not shown] and the T/C (dose: 12.5 mg/kg/injection, schedule: Q04DX003 (ip), vehicle: saline with Tween-80) was 181 % of control [survivor count not shown]. The T/C (dose: 16.5 mg/kg/injection, schedule: Q04DX003 (ip), vehicle: saline with Tween-80) was 236 % of control [survivor count not shown], the T/C (dose: 20.0 mg/kg/injection, schedule: Q04DX003 (ip), vehicle: saline with Tween-80) was 285 % of control [survivor count not shown] and the T/C (dose: 25.0 mg/kg/injection, schedule: Q04DX003 (ip), vehicle: saline with Tween-80) was 159 [survivor count not shown] and 245 % of control [survivor count not shown]. The T/C (dose: 37.5 mg/kg/injection, schedule: Q04DX003 (ip), vehicle: saline with Tween-80) was 90 % of control [survivor count not shown].

With `CC(=O)CI` the T/C (dose: 60.0 mg/kg/injection, schedule: Q01DX005 (ip), vehicle: saline with Tween-80) was 98 % of control and the T/C (dose: 120.0 mg/kg/injection, schedule: Q01DX005 (ip), vehicle: saline with Tween-80) was 98 % of control.

`CC(C)C#CC(O)(C(=O)OC1C2CCN(CC2)C1C)C1CCCC1` (stereo not drawn) was tested, and the T/C (dose: 100.0 mg/kg/injection, schedule: Q01DX001 (ip), vehicle: saline with Tween-80) was 98 % of control [survivor count not shown], the T/C (dose: 200.0 mg/kg/injection, schedule: Q01DX001 (ip), vehicle: saline with Tween-80) was 101 % of control [survivor count not shown] and the T/C (dose: 400.0 mg/kg/injection, schedule: Q01DX001 (ip), vehicle: saline with Tween-80) was 94 % of control [survivor count not shown].

`C=CCN1CCC(COC(=O)C(O)(c2ccccc2)c2ccccc2)C1` (stereo not drawn) was tested, and the T/C [3] was 101 % of control, the T/C [4] was 95 % of control and the T/C [5] was 95 % of control.

`CN1CCC(OC(=O)C(O)(c2ccccc2)C2C=CCCC2)CC1` (stereo not drawn) was tested, and the T/C [6] was 109 % of control [survivor count not shown], the T/C (dose: 200.0 mg/kg/injection, schedule: Q04DX003 (ip), vehicle: saline) was 104 % of control [survivor count not shown] and the T/C (dose: 400.0 mg/kg/injection, schedule: Q04DX003 (ip), vehicle: saline) was 101 % of control [survivor count not shown].

With `ClCCNCCCNCCCl` the T/C [1] was 109 [survivor count not shown] and 118 % of control [survivor count not shown], the T/C [2] was 118 [survivor count not shown] and 145 % of control [survivor count not shown] and the T/C (dose: 16.5 mg/kg/injection, schedule: Q01DX009 (ip), vehicle: saline) was 145 % of control [survivor count not shown]. The T/C [7] was 163 [survivor count not shown], 181 [survivor count not shown], 218 % of control [survivor count not shown], the T/C (dose: 37.5 mg/kg/injection, schedule: Q01DX009 (ip), vehicle: saline) was 195 % of control [survivor count not shown] and the T/C (dose: 50.0 mg/kg/injection, schedule: Q01DX009 (ip), vehicle: saline) was 122 % of control [survivor count not shown]. For the same compound, the T/C (dose: 100.0 mg/kg/injection, schedule: Q04DX003 (ip), vehicle: saline with Tween-80) was 104 % of control [survivor count not shown] and the T/C (dose: 200.0 mg/kg/injection, schedule: Q04DX003 (ip), vehicle: saline with Tween-80) was 86 % of control [survivor count not shown].

With `ClCCNCCCCNCCCl` the T/C (dose: 2.9 mg/kg/injection, schedule: Q01DX009 (ip), vehicle: saline) was 115 % of control [survivor count not shown], the T/C (dose: 4.4 mg/kg/injection, schedule: Q01DX009 (ip), vehicle: saline) was 113 % of control [survivor count not shown] and the T/C (dose: 6.25 mg/kg/injection, schedule: Q04DX003 (ip), vehicle: saline) was 95 % of control [survivor count not shown]. The T/C (dose: 6.6 mg/kg/injection, schedule: Q01DX009 (ip), vehicle: saline) was 123 % of control [survivor count not shown], the T/C (dose: 8.8 mg/kg/injection, schedule: Q01DX009 (ip), vehicle: saline) was 131 % of control [survivor count not shown] and the T/C (dose: 10.0 mg/kg/injection, schedule: Q01DX009 (ip), vehicle: saline) was 135 % of control [survivor count not shown]. For the same compound, the T/C (dose: 12.5 mg/kg/injection, schedule: Q04DX003 (ip), vehicle: saline) was 100 % of control [survivor count not shown], the T/C (dose: 13.2 mg/kg/injection, schedule: Q01DX009 (ip), vehicle: saline) was 154 % of control [survivor count not shown] and the T/C (dose: 20.0 mg/kg/injection, schedule: Q01DX009 (ip), vehicle: saline) was 168 % of control [survivor count not shown]. For the same compound, the T/C (dose: 25.0 mg/kg/injection, schedule: Q04DX003 (ip), vehicle: saline) was 145 % of control [survivor count not shown], the T/C (dose: 30.0 mg/kg/injection, schedule: Q01DX009 (ip), vehicle: saline) was 200 % of control [survivor count not shown] and the T/C (dose: 44.0 mg/kg/injection, schedule: Q04DX003 (ip), vehicle: saline) was 245 % of control [survivor count not shown]. The T/C (dose: 50.0 mg/kg/injection, schedule: Q04DX003 (ip), vehicle: saline) was 180 % of control [survivor count not shown], the T/C (dose: 66.0 mg/kg/injection, schedule: Q04DX003 (ip), vehicle: saline) was 227 % of control [survivor count not shown] and the T/C [6] was 213 % of control [survivor count not shown]. The T/C (dose: 150.0 mg/kg/injection, schedule: Q04DX003 (ip), vehicle: saline) was 118 % of control [survivor count not shown].

In the case of `C/C=C\C(O)(C(=O)OC1CN2CCC1CC2)c1ccccc1` (stereo not drawn), the T/C [3] is reported as 95 % of control [survivor count not shown], the T/C [4] is reported as 92 % of control [survivor count not shown] and the T/C [5] is reported as 100 % of control [survivor count not shown].

For `ClCCN(CCCl)C1CCc2ccccc2C1` (stereo not drawn), the T/C (dose: 0.39 mg/kg/injection, schedule: Q01DX009 (ip), vehicle: Klucel (hydroxypropylcellulose) (HPC)) was 143 % of control [survivor count not shown], the T/C (dose: 0.78 mg/kg/injection, schedule: Q01DX009 (ip), vehicle: Klucel (hydroxypropylcellulose) (HPC)) was 121 [survivor count not shown] and 127 % of control [survivor count not shown] and the T/C (dose: 1.56 mg/kg/injection, schedule: Q01DX009 (ip), vehicle: Klucel (hydroxypropylcellulose) (HPC)) was 140 [survivor count not shown] and 161 % of control [survivor count not shown]. The T/C (dose: 3.13 mg/kg/injection, schedule: Q01DX009 (ip), vehicle: Klucel (hydroxypropylcellulose) (HPC)) was 160 [survivor count not shown] and 168 % of control [survivor count not shown].

For `CN(C)CCOC(=O)C(O)(c1ccccc1)c1ccccc1`, the T/C [1] was 96 % of control [survivor count not shown], the T/C [2] was 100 % of control [survivor count not shown] and the T/C [7] was 105 [survivor count not shown] and 108 % of control [survivor count not shown].
